Measured values taken from PMC12313907.

Chains of the proteins cited; added tags and fusions are not shown. Lines headed by an entry give the natural chain unless they say otherwise; changes in a name come on top.
UniProt Q99873: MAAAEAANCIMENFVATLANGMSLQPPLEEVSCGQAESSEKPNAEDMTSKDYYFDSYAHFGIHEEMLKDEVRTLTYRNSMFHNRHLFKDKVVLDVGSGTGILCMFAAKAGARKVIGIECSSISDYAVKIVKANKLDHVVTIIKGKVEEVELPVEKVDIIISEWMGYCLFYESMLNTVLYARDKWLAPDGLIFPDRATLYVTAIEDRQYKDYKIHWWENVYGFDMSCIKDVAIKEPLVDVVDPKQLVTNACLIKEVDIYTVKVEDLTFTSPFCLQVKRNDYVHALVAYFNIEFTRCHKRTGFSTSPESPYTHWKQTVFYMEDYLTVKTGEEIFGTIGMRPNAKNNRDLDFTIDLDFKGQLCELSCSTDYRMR
UniProt P61081: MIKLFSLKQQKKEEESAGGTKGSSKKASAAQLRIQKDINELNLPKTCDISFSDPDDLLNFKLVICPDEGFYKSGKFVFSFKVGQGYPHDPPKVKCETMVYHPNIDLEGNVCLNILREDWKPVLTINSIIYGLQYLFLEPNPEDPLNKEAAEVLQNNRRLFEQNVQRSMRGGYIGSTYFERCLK

Target: FLAG-PRMT1 (UniProt Q99873)
Assay: affinity purification with mass spectrometry; FLAG beads on lysates of HK-2 cells expressing FLAG-PRMT1; SDS-PAGE, LC-MS; fold change >4 against control taken as interactor

binding: binds
Substance: Ubiquitin-conjugating enzyme E2M (UBE2m), endogenous in HK-2 cells (from UniProt P61081 1-183)

These are yes or no findings as the source states them, for the method shown. In cells and extracts the contact can be indirect. A yes stands for co-enrichment or nearness to the bait. Other partners may have been found.
